# Measured values as given in the supplement of paper PMC10032668.
# The chains behind the UniProt entries cited, without tags or fusion partners.
# CHMP2B, Q9UQN3, UniProt Q9UQN3, whole entry: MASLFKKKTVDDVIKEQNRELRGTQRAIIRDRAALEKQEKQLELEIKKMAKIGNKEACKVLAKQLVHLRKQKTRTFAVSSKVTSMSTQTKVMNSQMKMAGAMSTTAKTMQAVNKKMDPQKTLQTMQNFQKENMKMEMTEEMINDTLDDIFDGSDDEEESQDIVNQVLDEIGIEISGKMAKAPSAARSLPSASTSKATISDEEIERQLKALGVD
# COA4, Q9NYJ1, UniProt Q9NYJ1, whole entry: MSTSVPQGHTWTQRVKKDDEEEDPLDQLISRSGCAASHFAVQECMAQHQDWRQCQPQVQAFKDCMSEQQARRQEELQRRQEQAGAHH
# CRIPT, Q9P021, UniProt Q9P021, whole entry: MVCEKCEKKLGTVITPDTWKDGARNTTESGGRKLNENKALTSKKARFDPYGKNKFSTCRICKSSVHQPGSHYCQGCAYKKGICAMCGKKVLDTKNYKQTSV
# MORF4L2, Q15014, UniProt Q15014, whole entry: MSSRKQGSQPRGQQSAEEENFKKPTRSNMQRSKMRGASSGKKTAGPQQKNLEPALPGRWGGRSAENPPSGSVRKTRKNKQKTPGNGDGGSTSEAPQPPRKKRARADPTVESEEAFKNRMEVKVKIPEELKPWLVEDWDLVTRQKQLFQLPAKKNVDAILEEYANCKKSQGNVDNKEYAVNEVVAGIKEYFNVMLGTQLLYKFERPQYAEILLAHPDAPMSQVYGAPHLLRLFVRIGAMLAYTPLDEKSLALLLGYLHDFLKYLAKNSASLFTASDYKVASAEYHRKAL
# MPG, P29372, UniProt P29372, whole entry: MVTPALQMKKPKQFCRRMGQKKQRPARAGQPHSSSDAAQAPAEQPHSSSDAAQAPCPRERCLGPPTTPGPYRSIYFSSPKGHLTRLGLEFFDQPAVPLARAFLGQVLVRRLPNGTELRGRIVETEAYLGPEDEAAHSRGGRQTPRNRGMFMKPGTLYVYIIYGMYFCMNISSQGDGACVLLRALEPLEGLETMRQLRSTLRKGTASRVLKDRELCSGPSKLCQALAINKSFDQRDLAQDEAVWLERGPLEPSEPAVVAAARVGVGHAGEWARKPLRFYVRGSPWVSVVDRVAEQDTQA
# PIN4, Q9Y237, UniProt Q9Y237, whole entry: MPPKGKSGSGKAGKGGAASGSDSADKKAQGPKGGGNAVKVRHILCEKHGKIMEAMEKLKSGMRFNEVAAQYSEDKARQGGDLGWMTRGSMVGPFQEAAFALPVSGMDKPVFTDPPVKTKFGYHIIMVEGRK
# TMA7, Q9Y2S6, UniProt Q9Y2S6, whole entry: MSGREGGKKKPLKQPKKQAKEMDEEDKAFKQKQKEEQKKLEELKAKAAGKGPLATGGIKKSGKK
# ± gives the standard deviation of the averaged measurements. This is one part of the list. The list holds hits alone, and they repeat only in part.
# Assays:
# Assay in all cases: PRISMA enrichment of interactor (LFQ) in peptide spot vs all other peptide spots (log2 fold change); higher = stronger / more specific binding of the interactor to the peptide
# ALKBH2, Q6NS38 = biological target: ALKBH2, Q6NS38
# Procedure: (§1)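 PRISMA: 221 full-length sORF-encoded peptides (3-15 aa), plus SOS1/GLUT1 control peptides, were spot-synthesized on cellulose membranes in triplicate. Membranes were incubated with HEK293T lysate, and bound proteins were identified by LC-MS/MS with LFQ. Enrichment is the log2 fold change versus all other peptide spots; only significant interactors are listed (cutoff c=6, x0=2.8).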
# ALYREF, Q86V81 = biological target: ALYREF, Q86V81
# Procedure: as §1
# BOLA3, Q53S33 = biological target: BOLA3, Q53S33
# Procedure: as §1
# C12orf65, Q9H3J6 = biological target: C12orf65, Q9H3J6
# Procedure: as §1
# C19orf53, Q9UNZ5 = biological target: C19orf53, Q9UNZ5
# Procedure: as §1
# C1orf131, Q8NDD1 = biological target: C1orf131, Q8NDD1
# Procedure: as §1
# CCDC137, Q6PK04 = biological target: CCDC137, Q6PK04
# Procedure: as §1
# CCDC58, Q4VC31 = biological target: CCDC58, Q4VC31
# Procedure: as §1
# CCDC59, Q9P031 = biological target: CCDC59, Q9P031
# Procedure: as §1
# CHCHD7, Q9BUK0 = biological target: CHCHD7, Q9BUK0
# Procedure: as §1
# CHMP2B, Q9UQN3 = biological target: CHMP2B, Q9UQN3
# Procedure: as §1
# CHTOP, Q9Y3Y2 = biological target: CHTOP, Q9Y3Y2
# Procedure: as §1
# CMC2, Q9NRP2 = biological target: CMC2, Q9NRP2
# Procedure: as §1
# COA4, Q9NYJ1 = biological target: COA4, Q9NYJ1
# Procedure: as §1
# CRIPT, Q9P021 = biological target: CRIPT, Q9P021
# Procedure: as §1
# CSNK1E, P49674 = biological target: CSNK1E, P49674
# Procedure: as §1
# CSRP2, Q16527 = biological target: CSRP2, Q16527
# Procedure: as §1
# CXorf56, Q9H5V9 = biological target: CXorf56, Q9H5V9
# Procedure: as §1
# CYCS, P99999 = biological target: CYCS, P99999
# Procedure: as §1
# DDX49, Q9Y6V7 = biological target: DDX49, Q9Y6V7
# Procedure: as §1
# DERPC, P0CG12 = biological target: DERPC, P0CG12
# Procedure: as §1
# EDF1, O60869 = biological target: EDF1, O60869
# Procedure: as §1
# FAM107B, Q9H098 = biological target: FAM107B, Q9H098
# Procedure: as §1
# FAM32A, Q9Y421 = biological target: FAM32A, Q9Y421
# Procedure: as §1
# FAM50A, Q14320 = biological target: FAM50A, Q14320
# Procedure: as §1
# FBL, P22087 = biological target: FBL, P22087
# Procedure: as §1
# FKBP2, P26885 = biological target: FKBP2, P26885
# Procedure: as §1
# GABARAPL2, P60520 = biological target: GABARAPL2, P60520
# Procedure: as §1
# HNRNPA1, P09651 = biological target: HNRNPA1, P09651
# Procedure: as §1
# ISCU, Q9H1K1 = biological target: ISCU, Q9H1K1
# Procedure: as §1
# LENG1, Q96BZ8 = biological target: LENG1, Q96BZ8
# Procedure: as §1
# LSM14A, Q8ND56 = biological target: LSM14A, Q8ND56
# Procedure: as §1
# MAZ, P56270 = biological target: MAZ, P56270
# Procedure: as §1
# MORF4L2, Q15014 = biological target: MORF4L2, Q15014
# Procedure: as §1
# MPG, P29372 = biological target: MPG, P29372
# Procedure: as §1
# MRM2, Q9UI43 = biological target: MRM2, Q9UI43
# Procedure: as §1
# [1] = substrate: NONO, Q15233
# Procedure: as §1
# [2] = substrate: NOSIP, Q9Y314
# Procedure: as §1
# NUSAP1, Q9BXS6 = biological target: NUSAP1, Q9BXS6
# Procedure: as §1
# PCLAF, Q15004 = biological target: PCLAF, Q15004
# Procedure: as §1
# PIN4, Q9Y237 = biological target: PIN4, Q9Y237
# Procedure: as §1
# POLDIP3, Q9BY77 = biological target: POLDIP3, Q9BY77
# Procedure: as §1
# [3] = substrate: PPIF, P30405
# Procedure: as §1
# PSPC1, Q8WXF1 = biological target: PSPC1, Q8WXF1
# Procedure: as §1
# PSRC1, Q6PGN9 = biological target: PSRC1, Q6PGN9
# Procedure: as §1
# RAB34 = biological target: RAB34
# Procedure: as §1
# RBIS, Q8N0T1 = biological target: RBIS, Q8N0T1
# Procedure: as §1
# RBM33, Q96EV2 = biological target: RBM33, Q96EV2
# Procedure: as §1
# SAFB, Q15424 = biological target: SAFB, Q15424
# Procedure: as §1
# SAFB2, Q14151 = biological target: SAFB2, Q14151
# Procedure: as §1
# SERF2, P84101 = biological target: SERF2, P84101
# Procedure: as §1
# SFPQ, P23246 = biological target: SFPQ, P23246
# Procedure: as §1
# SMNDC1, O75940 = biological target: SMNDC1, O75940
# Procedure: as §1
# TACO1, Q9BSH4 = biological target: TACO1, Q9BSH4
# Procedure: as §1
# TMA7, Q9Y2S6 = biological target: TMA7, Q9Y2S6
# Procedure: as §1
# UTP11, Q9Y3A2 = biological target: UTP11, Q9Y3A2
# Procedure: as §1
# ZNF593, O00488 = biological target: ZNF593, O00488
# Procedure: as §1
# ZNF638, Q14966 = biological target: ZNF638, Q14966
# Procedure: as §1
# ZNF706, Q9Y5V0 = biological target: ZNF706, Q9Y5V0
# Procedure: as §1
# ZNF768, Q9H5H4 = biological target: ZNF768, Q9H5H4
# Procedure: as §1
binder,measurement,setting,value
MCVSVYADV [GPBP1],PRISMA enrichment of interactor (log2),"ALKBH2, Q6NS38",5.28
same,PRISMA enrichment of interactor (log2),"ALYREF, Q86V81",5.38
same,PRISMA enrichment of interactor (log2),"BOLA3, Q53S33",5.42
same,PRISMA enrichment of interactor (log2),"C12orf65, Q9H3J6",5.08
same,PRISMA enrichment of interactor (log2),"C19orf53, Q9UNZ5",8.02
same,PRISMA enrichment of interactor (log2),"C1orf131, Q8NDD1",4.07
same,PRISMA enrichment of interactor (log2),"CCDC137, Q6PK04",7.29
same,PRISMA enrichment of interactor (log2),"CCDC58, Q4VC31",4.17
same,PRISMA enrichment of interactor (log2),"CCDC59, Q9P031",5.48
same,PRISMA enrichment of interactor (log2),"CHCHD7, Q9BUK0",4.6
same,PRISMA enrichment of interactor (log2),"CHMP2B, Q9UQN3",6.82
same,PRISMA enrichment of interactor (log2),"CHTOP, Q9Y3Y2",5.33
same,PRISMA enrichment of interactor (log2),"CMC2, Q9NRP2",4.54
same,PRISMA enrichment of interactor (log2),"COA4, Q9NYJ1",6.45
same,PRISMA enrichment of interactor (log2),"CRIPT, Q9P021",5.2
same,PRISMA enrichment of interactor (log2),"CSNK1E, P49674",5.85
same,PRISMA enrichment of interactor (log2),"CSRP2, Q16527",6.07
same,PRISMA enrichment of interactor (log2),"CXorf56, Q9H5V9",6.8
same,PRISMA enrichment of interactor (log2),"CYCS, P99999",5.4
same,PRISMA enrichment of interactor (log2),"DDX49, Q9Y6V7",5.7
same,PRISMA enrichment of interactor (log2),"DERPC, P0CG12",6.33
same,PRISMA enrichment of interactor (log2),"EDF1, O60869",6.41
same,PRISMA enrichment of interactor (log2),"FAM107B, Q9H098",4.12
same,PRISMA enrichment of interactor (log2),"FAM32A, Q9Y421",4.59
same,PRISMA enrichment of interactor (log2),"FAM50A, Q14320",7.02
same,PRISMA enrichment of interactor (log2),"FBL, P22087",5.53
same,PRISMA enrichment of interactor (log2),"FKBP2, P26885",6.62
same,PRISMA enrichment of interactor (log2),"GABARAPL2, P60520",4.76
same,PRISMA enrichment of interactor (log2),"HNRNPA1, P09651",4.45
same,PRISMA enrichment of interactor (log2),"ISCU, Q9H1K1",5.35
same,PRISMA enrichment of interactor (log2),"LENG1, Q96BZ8",4.44
same,PRISMA enrichment of interactor (log2),"LSM14A, Q8ND56",4.56
same,PRISMA enrichment of interactor (log2),"MAZ, P56270",5.54 ± 0.82
same,PRISMA enrichment of interactor (log2),"MORF4L2, Q15014",6.19
same,PRISMA enrichment of interactor (log2),"MPG, P29372",6.21
same,PRISMA enrichment of interactor (log2),"MRM2, Q9UI43",4.44
same,PRISMA enrichment of interactor (log2),[1],5.37
same,PRISMA enrichment of interactor (log2),[2],7.14
same,PRISMA enrichment of interactor (log2),"NUSAP1, Q9BXS6",5.17
same,PRISMA enrichment of interactor (log2),"PCLAF, Q15004",5
same,PRISMA enrichment of interactor (log2),"PIN4, Q9Y237",5.04
same,PRISMA enrichment of interactor (log2),"POLDIP3, Q9BY77",5.72
same,PRISMA enrichment of interactor (log2),[3],5.97
same,PRISMA enrichment of interactor (log2),"PSPC1, Q8WXF1",5.71
same,PRISMA enrichment of interactor (log2),"PSRC1, Q6PGN9",5.65
same,PRISMA enrichment of interactor (log2),RAB34,4.12
same,PRISMA enrichment of interactor (log2),"RBIS, Q8N0T1",5.64
same,PRISMA enrichment of interactor (log2),"RBM33, Q96EV2",5.54
same,PRISMA enrichment of interactor (log2),"SAFB, Q15424",6.72
same,PRISMA enrichment of interactor (log2),"SAFB2, Q14151",5.71
same,PRISMA enrichment of interactor (log2),"SERF2, P84101",8.57
same,PRISMA enrichment of interactor (log2),"SFPQ, P23246",5.37
same,PRISMA enrichment of interactor (log2),"SMNDC1, O75940",7.04
same,PRISMA enrichment of interactor (log2),"TACO1, Q9BSH4",4.54
same,PRISMA enrichment of interactor (log2),"TMA7, Q9Y2S6",5.44
same,PRISMA enrichment of interactor (log2),"UTP11, Q9Y3A2",4.44
same,PRISMA enrichment of interactor (log2),"ZNF593, O00488",5.24
same,PRISMA enrichment of interactor (log2),"ZNF638, Q14966",6.43
same,PRISMA enrichment of interactor (log2),"ZNF706, Q9Y5V0",5.8
same,PRISMA enrichment of interactor (log2),"ZNF768, Q9H5H4",6.31

# A stretch taken from the entries so far:
binder,measurement,setting,value
MCVSVYADV [GPBP1],PRISMA enrichment of interactor (log2),[1],5.37
same,PRISMA enrichment of interactor (log2),[2],7.14
same,PRISMA enrichment of interactor (log2),"NUSAP1, Q9BXS6",5.17
same,PRISMA enrichment of interactor (log2),"PCLAF, Q15004",5
same,PRISMA enrichment of interactor (log2),"PIN4, Q9Y237",5.04
same,PRISMA enrichment of interactor (log2),"POLDIP3, Q9BY77",5.72
same,PRISMA enrichment of interactor (log2),[3],5.97
same,PRISMA enrichment of interactor (log2),"PSPC1, Q8WXF1",5.71
same,PRISMA enrichment of interactor (log2),"PSRC1, Q6PGN9",5.65
same,PRISMA enrichment of interactor (log2),RAB34,4.12
same,PRISMA enrichment of interactor (log2),"RBIS, Q8N0T1",5.64
same,PRISMA enrichment of interactor (log2),"RBM33, Q96EV2",5.54
same,PRISMA enrichment of interactor (log2),"SAFB, Q15424",6.72
same,PRISMA enrichment of interactor (log2),"SAFB2, Q14151",5.71
same,PRISMA enrichment of interactor (log2),"SERF2, P84101",8.57
